Results as given in patent CN114349860A.
Results are given in words; binding and its absence hold for the method and conditions named. Some results given as binding are weak or reduced against the parent protein; the word gives no strength.

How the values were obtained:
[1] = biological target: T1, FGFR4蛋白 (FGFR4 protein antigen, bought from Sino Biological / 义翘神州) (human) (UniProt P22455); experiment: ELISA, 100 ng FGFR4 protein coated per well, 1B5 at 1 ug/mL, HRP goat anti-mouse IgG, OD450
T1 sequence (looked up): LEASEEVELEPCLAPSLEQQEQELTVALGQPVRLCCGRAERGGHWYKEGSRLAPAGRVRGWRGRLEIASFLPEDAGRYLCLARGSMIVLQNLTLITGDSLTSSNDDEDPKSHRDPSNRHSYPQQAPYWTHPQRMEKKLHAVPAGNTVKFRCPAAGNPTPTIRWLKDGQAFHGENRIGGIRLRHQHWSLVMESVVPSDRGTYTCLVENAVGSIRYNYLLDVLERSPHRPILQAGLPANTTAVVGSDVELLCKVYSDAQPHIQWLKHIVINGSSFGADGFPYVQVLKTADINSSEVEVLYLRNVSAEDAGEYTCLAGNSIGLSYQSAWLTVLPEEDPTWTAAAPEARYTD

[2] = biological target: T1, FGFR4蛋白 (FGFR4 protein antigen, bought from Sino Biological / 义翘神州) (human); experiment: Western blot on denatured FGFR4 protein (~500 ng per lane), ~10 ug 1B5 in 3 mL

B1: 抗成纤维细胞生长因子受体4单克隆抗体1B5 (antibody, V domains shown)
VH: EVMLVQSGPELKKPGETVKISCKASGYTFTNFGMNWVKQAPGKGLKWMGWINTYTGEPTYADDFKGRFVFSLETSASTAYLQINNLKNEDTATYLCVRSSSGYVFDYWGQGTIVTVG
VL: DIVMTQSPSSLAVSAGEKVTMSCKSSQSLLNSRTRKNYLAWYQQKPGQSPKLLIYWASTRESGVPDRFTGSGSGTDFTLTISSVQAEDLAVYYCKQSYNLLTFGEGTKLEIT
[1]
  binding: binds
[2]
  binding: binds
